Experimental data reported in PubChem BioAssay AID2499 (National Center for Advancing Translational Sciences (NCATS), 2010).
Inconclusive results, whose numbers are uncertain, are shown with a selection of clear calls. Potencies beside an inconclusive call are fits to weak or partial responses and may not hold up. Calls of active or inactive are those of the source. Calls follow the shape of the dose curve; as a rule, active = well fitted inhibition curve with a large enough effect; inconclusive = small, poorly fitted or top-dose-only effect; inactive = flat fitted curve, though single readings scatter.

The chains behind the UniProt entries cited, without tags or fusion partners. Where a name states a change or a piece, a line headed by the entry shows the natural chain unless it says otherwise.
UniProt P51570: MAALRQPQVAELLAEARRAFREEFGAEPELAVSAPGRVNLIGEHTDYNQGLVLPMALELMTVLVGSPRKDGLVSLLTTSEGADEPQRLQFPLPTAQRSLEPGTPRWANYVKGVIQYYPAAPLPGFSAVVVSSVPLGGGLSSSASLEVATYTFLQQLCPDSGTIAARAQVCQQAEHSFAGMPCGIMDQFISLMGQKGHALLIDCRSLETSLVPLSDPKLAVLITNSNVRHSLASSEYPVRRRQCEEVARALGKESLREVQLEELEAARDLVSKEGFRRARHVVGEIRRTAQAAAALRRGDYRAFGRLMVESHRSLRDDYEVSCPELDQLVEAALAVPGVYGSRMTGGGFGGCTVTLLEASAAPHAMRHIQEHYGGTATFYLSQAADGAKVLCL

The compounds below were run against Galactokinase (Homo sapiens) (UniProt P51570) (assay: Confirmation Assay for Inhibitors of Human Galactokinase (GALK): probe SAR). Conditions: purified GALK, Kinase-Glo ATP depletion luminescence; series mostly up to 115 µM.
Description: NIH Molecular Libraries Probe Production Centers Network [MLPCN] NIH Chemical Genomics Center [NCGC] MLPCN Grant: R03 MH085689-01 Assay Submitter (PI): Kent Lai (University of Utah School of Medicine, 50 N Mario Capecchi Drive, Salt Lake City, UT 84132) NCGC Assay Overview Inherited deficiency of galactose-1-phosphate uridyltransferase (GALT) can result in a potentially lethal disorder called Classic Galactosemia (OMIM 230400). Several lines of evidence indicate that an elevated level of galactose-1-phosphate (gal-1-p), the product of galactokinase (GALK), is a major, if not sole, pathogenic mechanism in patients with classic galactosemia. Therefore, finding inhibitors of GALK is a potential novel therapy for this inherent metabolic disease and is the long term goal of this project. Active compounds observed in the qHTS GALK assay (AID: 1868) were cherry picked and re-screened for validation. GALK (provided by Kent Lai) was assayed using ATP and D-(+)-Galactose (Sigma-Aldrich cat# G0750) as substrates. Promega Kinase-Glo Plus (cat# V3774) technology was used to detect the residual ATP following kinetic reaction. Briefly, the Kinase-Glo Plus contains Ultra-Glo [1] luciferase and D-luciferin which generates a bioluminescence signal from the remaining ATP. Kinase reactions with and without GALK were used as negative and positive controls together with Protein Tyrosine Phosphatase CD45 inhibitor (EMD Bioscience cat# 540215) which is shown to inhibit GALK activity.
NCGC Assay Protocol Summary: Three uL/well of ATP-buffer solution (35 uM ATP, 20mM HEPES pH8.0, 5 mM MgCl2, 60 mM NaCl, 1 mM DTT, 0.01% BSA final concentration) was dispensed into 1536-well, assay plates (Greiner, solid white medium-binding plates) with Aurora Discovery BioRAPTR Flying Reagent Dispenser (FRD; Beckton-Dickenson). Compound and control solution (23 nL) was transferred to the assay plate using the Kalypsys 1536-pin tool apparatus. One uL/well GALK-galactose solution (5 nM GALK, 100 uM galactose, 20 mM HEPES pH8.0, 5 mM MgCl2, 60 mM NaCl, 1 mM DTT, 0.01% BSA final concentration) was then added using the FRD yielding a total kinase reaction volume of 4 uL/ well. After 1 hour of room temperature incubation, 4 uL Kinase-Glo Plus reagent was added for a final assay volume of 8 uL/well. Luminescence was detected with the ViewLux plate reader (Perkin Elmer, Waltham, MA) after 2 min incubation using a 1 sec exposure time and 2x binning.

**Q.** How did the Potency turn out when `O=C1CCCC2=C1C1(CCCCC1)N=C(Nc1nc3ccccc3o1)N2` was run?
**A.** Its Potency is active: 13.3 µM.

**Q.** With `COc1ccc(C2N=C(Nc3nc4ccccc4o3)NC3=C2C(=O)CC(C)(C)C3)cc1` (stereo not drawn) as the compound, how does the Potency read?
**A.** Its Potency is “inactive”.

**Q.** With `CC1(C)CC(=O)C2=C(C1)NC(Nc1nc3ccccc3o1)=NC2c1cccnc1` (stereo not drawn) as the compound, how does the Potency read?
**A.** The Potency was inconclusive: 23.7 µM [falling, partial curve, poor fit].

**Q.** Which Potency does the source give for `Cn1c(NC2=NC3(CCCC3)C3=C(CCCC3=O)N2)nc2ccccc21` here?
**A.** The Potency was “inactive”.

**Q.** Which Potency does the source give for `Cc1ccc2nc(NC3=NC4(CCCC4)C4=C(CCCC4=O)N3)oc2c1` here?
**A.** Its Potency is inconclusive: 21.1 µM [falling, full curve].

**Q.** With `O=C1CCCC2=C1C1(CCCOC1)N=C(Nc1nc3ccccc3o1)N2` (stereo not drawn) as the compound, how does the Potency read?
**A.** The Potency was inconclusive: 33.5 µM [falling, partial curve].

**Q.** `CC1(C)CC(=O)C2=C(C1)NC(Nc1nc3ccccc3o1)=NC2c1ccccc1` (stereo not drawn) was tested. Which Potency did it give?
**A.** Its Potency is inconclusive: 21.1 µM [falling, partial curve].

**Q.** For `CC1(C)CC(=O)C2=C(C1)NC(Nc1nc3ccccc3o1)=NC2c1cccc(Cl)c1` (stereo not drawn), which Potency is on record?
**A.** Its Potency is inconclusive: 42.1 µM [falling, partial curve].
